From paper PMC9531947, “Targeting A-kinase anchoring protein 12 phosphorylation in hepatic stellate cells regulates liver injury and fibrosis in mouse models” (eLife, 2022)

Amino acid sequences for entries named in this document (tags omitted). A change or cut given only in a name is not applied to a line headed by its entry.
UniProt Q9WTQ5: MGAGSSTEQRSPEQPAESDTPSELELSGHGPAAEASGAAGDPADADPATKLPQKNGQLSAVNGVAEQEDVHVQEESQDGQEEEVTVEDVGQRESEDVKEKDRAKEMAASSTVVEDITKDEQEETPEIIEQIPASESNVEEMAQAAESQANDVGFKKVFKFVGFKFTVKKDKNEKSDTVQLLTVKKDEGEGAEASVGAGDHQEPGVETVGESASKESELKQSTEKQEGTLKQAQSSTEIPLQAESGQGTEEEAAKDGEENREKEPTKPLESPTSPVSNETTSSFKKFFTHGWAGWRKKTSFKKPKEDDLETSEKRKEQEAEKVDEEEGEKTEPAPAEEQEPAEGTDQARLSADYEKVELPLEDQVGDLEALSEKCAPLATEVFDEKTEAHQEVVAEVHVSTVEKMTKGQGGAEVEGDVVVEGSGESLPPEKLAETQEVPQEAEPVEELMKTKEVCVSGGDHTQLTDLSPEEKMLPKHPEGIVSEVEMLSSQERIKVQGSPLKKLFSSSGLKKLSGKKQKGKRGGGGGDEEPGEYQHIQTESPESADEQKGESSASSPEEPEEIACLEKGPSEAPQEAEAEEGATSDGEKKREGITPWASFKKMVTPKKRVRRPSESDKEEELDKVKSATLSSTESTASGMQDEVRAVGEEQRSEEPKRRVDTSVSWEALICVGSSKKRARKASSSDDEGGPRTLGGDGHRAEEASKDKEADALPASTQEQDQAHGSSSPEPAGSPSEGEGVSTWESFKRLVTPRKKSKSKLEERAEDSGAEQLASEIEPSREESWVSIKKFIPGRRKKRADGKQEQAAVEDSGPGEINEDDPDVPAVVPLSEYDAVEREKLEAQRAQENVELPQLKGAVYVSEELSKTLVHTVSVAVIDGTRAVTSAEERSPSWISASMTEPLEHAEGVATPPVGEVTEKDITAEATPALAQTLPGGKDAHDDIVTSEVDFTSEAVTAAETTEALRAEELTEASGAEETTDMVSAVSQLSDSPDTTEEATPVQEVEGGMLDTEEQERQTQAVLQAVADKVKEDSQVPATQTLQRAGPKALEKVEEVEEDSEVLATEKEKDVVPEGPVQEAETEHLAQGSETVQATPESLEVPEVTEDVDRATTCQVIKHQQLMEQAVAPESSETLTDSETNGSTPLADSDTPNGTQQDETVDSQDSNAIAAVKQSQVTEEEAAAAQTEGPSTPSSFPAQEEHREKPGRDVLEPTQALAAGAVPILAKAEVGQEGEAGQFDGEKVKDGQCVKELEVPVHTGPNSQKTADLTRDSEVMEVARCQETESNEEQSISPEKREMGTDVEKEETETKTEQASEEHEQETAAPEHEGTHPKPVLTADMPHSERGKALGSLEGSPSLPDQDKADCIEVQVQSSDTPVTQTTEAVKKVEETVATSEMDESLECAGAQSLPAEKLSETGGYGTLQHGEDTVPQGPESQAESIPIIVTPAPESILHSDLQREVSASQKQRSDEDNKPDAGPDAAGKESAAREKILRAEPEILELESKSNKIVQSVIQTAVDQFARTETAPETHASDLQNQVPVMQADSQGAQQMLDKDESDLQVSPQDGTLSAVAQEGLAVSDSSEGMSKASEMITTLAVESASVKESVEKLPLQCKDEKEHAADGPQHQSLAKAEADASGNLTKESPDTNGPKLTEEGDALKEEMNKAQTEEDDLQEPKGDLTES

What was measured:
[1] = biological target: AKAP12 with its activation-responsive phospho-sites deleted (PDEL), mouse (mouse (endogenous locus in HSCs, edited)) (UniProt Q9WTQ5); assay: proximity ligation; mouse liver sections (oil or CCl4; EV, PDEL or PMUT CRISPR), PLA co-stained with the HSC marker desmin
[2] = biological target: AKAP12 with its activation-responsive phospho-sites deleted (PDEL), mouse (mouse (endogenous locus in HSCs, edited)) (UniProt Q9WTQ5); assay: co-IP; mouse liver protein (oil or CCl4 mice; EV, PDEL or PMUT CRISPR AAV); 200 µg pre-cleared protein with 2 µg antibody; AKAP12 antibody and HSP47 blot, or HSP47 antibody and collagen blot; normal mouse IgG as negative control
[3] = biological target: AKAP12 with its activation-responsive phospho-sites deleted (PDEL), mouse (mouse (endogenous locus in HSCs, edited)) (UniProt Q9WTQ5); assay: co-IP; culture-activated mouse HSCs, WT or CRISPR-edited (HDR); AKAP12-HSP47 co-immunoprecipitation-immunoblotting

Measured: binding

B1: heat-shock protein 47 (HSP47), mouse, endogenous (protein, UniProt P19324 18-417)
chain: AEVKKPLEAAAPGTAEKLSSKATTLAERSTGLAFSLYQAMAKDQAVENILLSPLVVASSLGLVSLGGKATTASQAKAVLSAEKLRDEEVHTGLGELLRSLSNSTARNVTWKLGSRLYGPSSVSFADDFVRSSKQHYNCEHSKINFRDKRSALQSINEWASQTTDGKLPEVTKDVERTDGALLVNAMFFKPHWDEKFHHKMVDNRGFMVTRSYTVGVTMMHRTGLYNYYDDEKEKLQMVEMPLAHKLSSLIILMPHHVEPLERLEKLLTKEQLKAWMGKMQKKAVAISLPKGVVEVTHDLQKHLAGLGLTEAIDKNKADLSRMSGKKDLYLASVFHATAFEWDTEGNPFDQDIYGREELRSPKLFYADHPFIFLVRDNQSGSLLFIGRLVRPKGDKMRDEL
binds: all assays above

No constants are given. Whether binding was seen depends on the method and setting. Binding seen in cells or lysates may run through a third protein. A result given as binding can be weak or reduced; the word gives no strength.
